Binding data for two molecules are collected here from PMC4295872.

The chains behind the UniProt entries cited, without tags or fusion partners.
UniProt Q14790: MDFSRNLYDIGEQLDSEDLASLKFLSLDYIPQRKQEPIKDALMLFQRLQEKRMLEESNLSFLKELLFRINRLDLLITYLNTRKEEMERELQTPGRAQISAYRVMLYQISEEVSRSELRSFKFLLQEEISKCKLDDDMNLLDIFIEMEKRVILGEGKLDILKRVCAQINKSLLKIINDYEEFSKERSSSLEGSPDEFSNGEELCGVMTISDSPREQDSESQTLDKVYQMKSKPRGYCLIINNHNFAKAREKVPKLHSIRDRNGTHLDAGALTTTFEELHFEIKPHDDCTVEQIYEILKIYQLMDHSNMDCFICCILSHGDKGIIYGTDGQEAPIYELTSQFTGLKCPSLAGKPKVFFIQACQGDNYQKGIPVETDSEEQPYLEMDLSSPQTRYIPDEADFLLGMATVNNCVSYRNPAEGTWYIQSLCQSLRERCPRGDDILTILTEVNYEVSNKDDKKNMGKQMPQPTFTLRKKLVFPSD
UniProt P31749: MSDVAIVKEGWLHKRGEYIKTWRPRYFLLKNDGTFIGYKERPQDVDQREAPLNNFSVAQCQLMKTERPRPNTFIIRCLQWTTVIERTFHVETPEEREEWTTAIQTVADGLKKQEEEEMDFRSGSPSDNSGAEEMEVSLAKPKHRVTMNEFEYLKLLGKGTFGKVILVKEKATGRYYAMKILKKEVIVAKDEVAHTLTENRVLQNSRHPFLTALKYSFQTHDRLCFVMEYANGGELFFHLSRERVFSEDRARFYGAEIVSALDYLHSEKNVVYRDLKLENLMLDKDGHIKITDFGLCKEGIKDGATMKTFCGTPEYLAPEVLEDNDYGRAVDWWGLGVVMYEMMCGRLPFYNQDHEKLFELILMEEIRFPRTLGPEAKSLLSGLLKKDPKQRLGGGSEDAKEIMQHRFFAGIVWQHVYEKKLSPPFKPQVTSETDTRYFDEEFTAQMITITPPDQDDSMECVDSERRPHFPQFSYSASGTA

The target in assay [1] is T1, breast cancer anti-estrogen resistance 3 (BCAR3) (human) (UniProt O75815).
T1 sequence: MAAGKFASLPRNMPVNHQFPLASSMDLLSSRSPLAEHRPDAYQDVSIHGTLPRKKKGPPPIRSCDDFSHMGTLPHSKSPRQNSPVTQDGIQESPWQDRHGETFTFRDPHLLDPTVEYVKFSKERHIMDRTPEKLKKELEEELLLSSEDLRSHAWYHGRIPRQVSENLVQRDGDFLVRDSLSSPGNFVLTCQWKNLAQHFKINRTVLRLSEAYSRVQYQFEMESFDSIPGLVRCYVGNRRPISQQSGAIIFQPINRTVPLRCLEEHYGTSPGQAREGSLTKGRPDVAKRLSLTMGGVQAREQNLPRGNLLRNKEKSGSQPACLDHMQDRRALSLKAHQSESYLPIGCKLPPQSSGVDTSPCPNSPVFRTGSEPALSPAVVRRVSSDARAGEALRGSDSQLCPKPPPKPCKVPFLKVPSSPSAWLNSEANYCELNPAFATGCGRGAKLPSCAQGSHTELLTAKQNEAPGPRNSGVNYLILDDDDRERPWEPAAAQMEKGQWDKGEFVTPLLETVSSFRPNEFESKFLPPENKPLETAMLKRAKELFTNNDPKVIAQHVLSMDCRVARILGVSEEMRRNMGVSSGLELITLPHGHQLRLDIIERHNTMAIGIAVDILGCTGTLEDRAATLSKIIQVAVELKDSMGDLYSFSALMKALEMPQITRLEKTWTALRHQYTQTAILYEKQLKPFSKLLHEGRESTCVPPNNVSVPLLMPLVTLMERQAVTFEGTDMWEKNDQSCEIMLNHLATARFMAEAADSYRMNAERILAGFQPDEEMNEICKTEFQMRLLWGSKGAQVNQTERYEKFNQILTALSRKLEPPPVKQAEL
The assay is described as follows: two-hybrid; pairwise matrix Y2H in MaV203 yeast; baits (BC-apoptosis genes) in pDEST32, preys (PSMC3IP, EPSTI1) in pDEST22; reporters HIS3 (3AT), URA3, HIS3/URA3 and LacZ; high-confidence = at least two reporters or repeated in biological replica screens.

The target of assay [2] is caspase 8 (CASP8) (human) (UniProt Q14790). The assay is described as above.
Another assay has as its target AKT1 (human) (UniProt P31749). The assay is described as follows: two-hybrid; reported as 'unpublished data'; told within the Y2H results, AKT1 cloned as a Y2H bait.

These are yes or no findings as the source states them, for the method shown. Some binding calls cover weakened binding; strength is not graded here.

B1: proteasome 26S subunit ATPase 3 interacting protein (PSMC3IP) (protein, UniProt Q9P2W1 1-217)
chain: MSKGRAEAAAGAAGILLRYLQEQNRPYSSQDVFGNLQREHGLGKAVVVKTLEQLAQQGKIKEKMYGKQKIYFADQDQFDMVSDADLQVLDGKIVALTAKVQSLQQSCRYMEAELKELSSALTTPEMQKEIQELKKECAGYRERLKNIKAATNHVTPEEKEQVYRERQKYCKEWRKRKRMATELSDAILEGYPKSKKQFFEEVGIETDEDYNVTLPDP
As to B1, the binding entry in assay [1] and in assay [2] was “binds” each time.

B2: epithelial-stromal interaction 1 (EPSTI1) (protein, UniProt Q96J88 1-318)
chain: MNTRNRVVNSGLGASPASRPTRDPQDPSGRQGELSPVEDQREGLEAAPKGPSRESVVHAGQRRTSAYTLIAPNINRRNEIQRIAEQELANLEKWKEQNRAKPVHLVPRRLGGSQSETEVRQKQQLQLMQSKYKQKLKREESVRIKKEAEEAELQKMKAIQREKSNKLEEKKRLQENLRREAFREHQQYKTAEFLSKLNTESPDRSACQSAVCGPQSSTWKLPILPRDHSWARSWAYRDSLKAEENRKLQKMKDEQHQKSELLELKRQQQEQERAKIHQTEHRRVNNAFLDRLQGKSQPGGLEQSGGCWNMNSGNSWGI
Take B2: the binding result (with AKT1 (human); in assay [1]; in assay [2]) was “binds” in each case.
